Experimental data reported in patent US11414648B2, “Methods and compositions for production of fallopian tube epithelium” (CEDARS-SINAI MEDICAL CENTER, priority 2017, dated 2022).
At least one structure is not confirmed: it was looked up by name or label, or the drawing left a doubt.

System: iPSC-derived spheroids
Assay: Growing FTE organoids from spheroids in Matrigel (bright field morphology)
Format: cell-based, human
Conditions: Matrigel that contained phenol red vs not containing; day 14

SMILES: O=S1(=O)OC(c2ccc(O)cc2)(c2ccc(O)cc2)c2ccccc21 [phenol red]
- structure formed by spheroids grown in Matrigel: formed an organoid structure
